# PubChem BioAssay AID504744 | Drosophila RNAi Screening Center, 2011
# Screen: 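Identify dsRNAs that increase or decrease phospho-dAkt after insulin treatment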 (primary screen)
# System: Drosophila Kc167 cells
# Reagent: long dsRNA against Drosophila genes, 250 ng dsRNA per well of a 384-well plate
# Timing: 3 days of knock-down, then overnight serum-free starvation before stimulation
# Treatment: bovine insulin at 387 nM for 10 minutes after 12 h without serum
# Measurement: 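In-cell antibody fluorescence for phospho-dAkt in each well over DNA-dye signal, with log2 residuals expressed as z-scores adjusted for cell count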
# Hit rule: 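Under insulin, a gene counts as a hit if the average z-score of two replicates lies above 2.5 or below -2.5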
# The screen tested about 23,000 reagents; this is a random part of those that have a named target and a result. Over the whole deposit, 98 (0.43%) are marked active. 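Only hit calls are given; the phospho-dAkt signals, z-scores and hit direction were not deposited.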 A plus sign joins genes that one reagent is predicted to hit. Reagent sequences are not shown.
gene,DRSC id,Call
CG32986,DRSC02509,inactive
Tsp42Ec,DRSC06192,inactive
CG13159,DRSC06283,inactive
CG13223,DRSC06344,inactive
yellow-e2,DRSC15169,inactive
CG11920,DRSC14439,inactive
CG15472,DRSC18055,inactive
hpo,DRSC06065,inactive
eIF3g2,DRSC14275,inactive
Muc18B,DRSC20064,inactive
Muc18B,DRSC21644,inactive
CG10814,DRSC06004,inactive
Lip2,DRSC02577,inactive
Lip2,DRSC02578,inactive
NT5E-2,DRSC06893,inactive
CG8671,DRSC03102,inactive
CG8671,DRSC03103,inactive
fest,DRSC07349,inactive
CG11899,DRSC16656,inactive
Alms1a,DRSC18558,inactive
Hcf,DRSC17143,inactive
nmdyn-D6,DRSC20355,inactive
HHEX,DRSC16186,inactive
fok,DRSC02103,inactive
CG40498,DRSC07786,inactive
sti,DRSC09739,inactive
sti,DRSC09740,inactive
Elal,DRSC16662,inactive
SmB,DRSC03437,inactive
CG33489,DRSC10588,inactive
mRpL51,DRSC02200,inactive
Dfd,DRSC12593,inactive
IKKbeta,DRSC16714,inactive
CG13954,DRSC06442,inactive
TfIIA-S,DRSC16883,inactive
CG13868,DRSC06427,inactive
CG13110,DRSC02208,inactive
OtopLb,DRSC00594,active
ATPsynO,DRSC16780,inactive
Spn43Aa,DRSC06117,inactive
CG32832,DRSC01562,inactive
Cpr65Ec,DRSC11025,inactive
ADD1,DRSC07135,inactive
Tsr1,DRSC11821,inactive
Cec-Psi1,DRSC21956,inactive
ewg,DRSC18773,inactive
kune,DRSC04860,inactive
CG15209,DRSC19655,inactive
CG10680,DRSC02093,inactive
Spn43Ab,DRSC06781,inactive
CG13991,DRSC02323,inactive
lncRNA:CR42862,DRSC08348,inactive
mh,DRSC20168,inactive
CG7906,DRSC10928,inactive
mRpL9,DRSC15678,inactive
CG1575,DRSC18069,inactive
CG18557,DRSC00524,inactive
Mfap1,DRSC08154,inactive
CG1077,DRSC12146,inactive
Srg2 + CG42826,DRSC10681,inactive
Srg2 + CG42826,DRSC10682,inactive
CG9590,DRSC16506,inactive
sff,DRSC10590,inactive
GstO3,DRSC10710,inactive
CG15368,DRSC18040,inactive
Ugt35B1,DRSC16893,inactive
Rbf,DRSC18704,inactive
twe,DRSC03628,inactive
CG30385,DRSC06031,inactive
Art1,DRSC16063,inactive
CG9400,DRSC20182,inactive
ox,DRSC07520,inactive
Nepl6,DRSC03242,inactive
Hap40,DRSC20085,inactive
ssp2,DRSC11052,inactive
CG6055,DRSC02923,inactive
CG17145,DRSC10247,inactive
Cyp6a19,DRSC07379,inactive
Smurf,DRSC07641,inactive
CG14377,DRSC14837,inactive
CG13712,DRSC08321,inactive
CG31404,DRSC15497,inactive
CG16952,DRSC19759,inactive
ncm,DRSC02179,inactive
BicC,DRSC02005,inactive
CG3600 (retired record),DRSC18599,inactive

A portion of the results above, as a working copy:
gene,DRSC id,Call
lncRNA:CR42862,DRSC08348,inactive
mh,DRSC20168,inactive
CG7906,DRSC10928,inactive
mRpL9,DRSC15678,inactive
CG1575,DRSC18069,inactive
CG18557,DRSC00524,inactive
Mfap1,DRSC08154,inactive
CG1077,DRSC12146,inactive
Srg2 + CG42826,DRSC10681,inactive
Srg2 + CG42826,DRSC10682,inactive
CG9590,DRSC16506,inactive
sff,DRSC10590,inactive
GstO3,DRSC10710,inactive
CG15368,DRSC18040,inactive
Ugt35B1,DRSC16893,inactive
Rbf,DRSC18704,inactive
twe,DRSC03628,inactive
CG30385,DRSC06031,inactive
Art1,DRSC16063,inactive

More results follow.
gene,DRSC id,Call
CG12895,DRSC06210,inactive
CG14180 (retired record),DRSC10179,inactive
TBC1D16,DRSC02841,inactive
Tbcb,DRSC06067,inactive
CG5697,DRSC15858,inactive
CG33271,DRSC10583,inactive
Obp59a,DRSC04160,inactive
Naa15-16,DRSC19440,inactive
Naa15-16,DRSC22846,inactive
CR42532,DRSC06713,inactive
Flo1,DRSC07427,inactive
CG14380,DRSC14840,inactive
CG15199,DRSC19646,inactive
ZIPIC,DRSC16349,inactive
CG30412,DRSC04564,inactive
CG1504,DRSC20513,inactive
CG2116,DRSC18206,inactive
CG18731,DRSC15377,inactive
HDAC1,DRSC08696,active
RhoGAP100F,DRSC15409,inactive
PAN3,DRSC08190,inactive
CG42375 + CG9288,DRSC16468,inactive
ppk30,DRSC15302,inactive
wuc,DRSC06152,inactive
CG31178,DRSC14590,inactive
Bro,DRSC08149,inactive
DCAF12,DRSC15475,inactive
CG9986,DRSC16586,inactive
Gnptab,DRSC07057,inactive
Fur2,DRSC19817,inactive
CG14835,DRSC10205,inactive
WRNexo,DRSC16278,inactive
Ir68b,DRSC10251,inactive
ymp,DRSC13720,inactive
ymp,DRSC14482,inactive
CG18809,DRSC19818,inactive
CG10064,DRSC09689,inactive
CG32100,DRSC09725,inactive
CG32100,DRSC10331,inactive
Drep2,DRSC07528,inactive
Neb-cGP,DRSC17991,inactive
nAChRalpha7,DRSC20078,inactive
nAChRalpha7,DRSC20081,inactive
CG34429,DRSC10120,inactive
Obp56a,DRSC06085,inactive
scpr-A + scpr-C + scpr-B,DRSC15715,inactive
upSET,DRSC11051,inactive
CG14071,DRSC02374,inactive
Ldsdh1,DRSC18219,inactive
PrBP,DRSC03189,inactive
Vps8,DRSC09705,inactive
CG32845,DRSC07867,inactive
CG30460,DRSC06559,inactive
CG30460,DRSC06560,inactive
Ir54a + sub,DRSC06459,inactive
tral,DRSC09779,inactive
CaMKI,DRSC17162,inactive
CG30183,DRSC04450,inactive
CG30183,DRSC04472,inactive
cold,DRSC00538,inactive
Crg-1,DRSC22882,inactive
Reck,DRSC10504,inactive
Reck,DRSC10505,inactive
dpa,DRSC07604,inactive
Fntb,DRSC15244,inactive
Xrp1,DRSC15282,inactive
Xrp1,DRSC15283,inactive
Pgant9,DRSC05621,inactive
Pgant9,DRSC06584,inactive
Pgant9,DRSC07185,inactive
Pgant9,DRSC07186,inactive
Pgant9,DRSC07187,inactive
Pgant9,DRSC07189,inactive
Pgant9,DRSC21807,inactive
Pgant9,DRSC22076,inactive
Rassf,DRSC15612,inactive
EMC1,DRSC15455,inactive
CG32695,DRSC17975,inactive
CG15382,DRSC00397,inactive
CG13743,DRSC05139,inactive
CG13743,DRSC06414,inactive
CG13743,DRSC22775,inactive
Ugt36F1,DRSC02601,inactive
CG30484,DRSC05457,inactive
Or85d,DRSC16767,inactive
Pka-C2,DRSC16790,inactive
CG13599,DRSC14602,inactive
CG31525,DRSC12004,inactive
CG31041,DRSC13951,inactive
IKKepsilon,DRSC03550,inactive
CG17361,DRSC10266,inactive
AOX1,DRSC15339,inactive
SPE,DRSC15135,inactive
ppk22,DRSC22093,inactive
CG9861,DRSC04576,inactive
CG6661,DRSC10687,inactive
MED4,DRSC11014,inactive
Kyat,DRSC16147,inactive
key,DRSC04285,inactive
Mes2,DRSC11593,inactive
Mes2,DRSC11632,inactive
CG16865,DRSC01904,inactive
CG6398,DRSC19992,inactive
Gpo2,DRSC06822,inactive
cola + swif,DRSC06826,inactive
cola + swif,DRSC21965,inactive
CG7386,DRSC10832,inactive
Vha36-3,DRSC18615,inactive
b,DRSC03487,inactive
CG1671,DRSC06617,inactive
Cyp6a18,DRSC16632,inactive
CG7131,DRSC16203,inactive
CG4045,DRSC18518,inactive
jus,DRSC14861,inactive
jus,DRSC14862,inactive
